Data: PubChem BioAssay AID2685 (National Center for Advancing Translational Sciences (NCATS), 2010)
This is one part of the list. Shown are side measurements of this screen, not its main read-out; they come without a call. The list favours compounds with an active or inconclusive main result. The note in brackets gives the kind of curve behind each potency; many fits are weak.

Assay: qHTS Assay for Lipid Storage Modulators in Drosophila S3 Cells;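 for cell number change: cells counted by Cell Tracker Red CMTPX staining in the red channel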
Conditions: BODIPY lipid droplet fluorescence, 18-24 h; for cell number change: measured here: cell count max response, cells fed with added oleic acid
Procedure, shortened: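 Drosophila S3 cells got compounds at several concentrations plus oleic acid (400 uM solution). Laser-scanning cytometry with 488 nm excitation read lipid droplets at 500-530 nm and cells at 575-640 nm. Percent activity was relative to 20 uM Triacsin C.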

[1] = measured here: cell number channel AC50, cells fed with added oleic acid
[2] = measured here: lipid fluorescence (Fed channel) AC50, cells fed with added oleic acid

| SMILES | cell number change [%] | AC50 [1] | AC50 [2] |
| --- | --- | --- | --- |
| O=C(NC(=S)NNC(=O)[C@H]1C[C@@H]1c1ccccc1)c1cccc(F)c1 | 34 | 0.731 µM [rising, full curve] | 0.231 µM [rising, full curve] |
| O=C1C2CC=C(Cl)CC2C(=O)N1CCc1ccccc1 (stereo unspecified) | – | – | 0.411 µM [falling, single point] |
| O=C(NCCN1CCOCC1)C(=O)NCC1OCCN1S(=O)(=O)c1ccccc1 (stereo unspecified) | -3.78 | – | 18.4 µM [falling, single point] |
| NC(=O)c1nsc(C(=O)N(Cc2ccc(F)cc2)C(C(=O)NCC2CCCO2)c2ccc(F)cc2)c1N (stereo unspecified) | -8.33 | – | – |
| CC(C)Cn1nc(C(=O)Nc2cccc(C(=O)NC3CC3)c2)c2ccccc2c1=O | 14.9 | – | – |
| CC(NC(=O)C1CCCO1)c1ccccc1 (stereo unspecified) | 14.9 | – | 2.06 µM [falling, partial curve, poor fit] |
| O=C(CS(=O)(=O)c1ccc(F)cc1)Nc1nnc(-c2cccs2)o1 | -6.74 | 1.16 µM [falling, full curve, poor fit] | 6.51 µM [falling, single point] |
| COc1ccc(NC(=O)CC2C(=O)N(c3ccc(OC)cc3)C(=O)N2C(C)C)cc1 (stereo unspecified) | 103 | 20.6 µM [rising, single point] | – |
| Cc1nnc(NC(=O)c2cccc(S(=O)(=O)N3CC(c4ccccc4)CC3=O)c2)s1 (stereo unspecified) | -15.1 | – | 29.1 µM [falling, single point] |
| CN(Cc1nc(-c2cccnc2)no1)S(=O)(=O)c1ccccc1 | – | – | 0.411 µM [rising, partial curve, poor fit] |
| O=c1[nH][nH]c(C(F)(F)F)c1C=NCc1cccs1 | -26.8 | – | – |
| Cc1ccc(S(=O)(=O)NC(=O)Nc2ccc(Cl)cn2)cc1 | -13.6 | – | 5.17 µM [falling, partial curve, poor fit] |
| O=C(O)C1C2CCC(C2)C1C(=O)NCCc1ccccc1 (stereo unspecified) | 9.33 | – | 2.06 µM [falling, partial curve, poor fit] |
| C#CCOc1c(Cl)cc(/C=N/O)cc1OC | 21.1 | – | 6.51 µM [rising, partial curve, poor fit] |
| COc1cccc(CN(C)CC(=O)Nc2cc3oc4ccccc4c3cc2OC)c1 | 20.1 | – | 0.82 µM [rising, full curve, poor fit] |
| CC1CCN(CCCCOc2ccc(Cl)cc2)CC1 | -16.8 | – | 0.731 µM [falling, full curve] |
| Clc1ccc2nc(C3CCN(Cc4nnnn4C4CCCCC4)CC3)[nH]c2c1 | -35.6 | 18.4 µM [falling, single point] | 23.1 µM [falling, single point] |
| Cc1ccc(C)c(NC(=S)Nc2ncccc2C)c1 | 13.7 | – | 0.259 µM [rising, full curve, poor fit] |
| Cc1ccc(C2=NN(C(=O)CCC(=O)O)C(c3ccc4c(c3)OCO4)C2)cc1 (stereo unspecified) | 5.96 | – | 29.1 µM [rising, single point] |
| O=C(Nc1ccccc1)N1CCC(C(=O)N2CCN(Cc3ccccc3)CC2)CC1 | -40.6 | 0.731 µM [falling, full curve] | 16.4 µM [falling, partial curve] |

| SMILES | cell number change [%] | AC50 [1] | AC50 [2] |
| --- | --- | --- | --- |
| COc1ccc(S(=O)(=O)n2ccc(C)n2)cc1C | -6.92 | – | 0.13 µM [rising, full curve, poor fit] |
| CC(C)(C)NC(=O)C1CCN(S(=O)(=O)c2cccc(C(F)(F)F)c2)CC1 | – | – | 0.082 µM [falling, full curve, poor fit] |
| Cc1cc(C)n2cc(CSC3=NCCS3)nc2n1 | -16.8 | – | – |
| CCN1/C(=C\C=C2\C(=O)N(c3ccccc3)C(=S)N2C)Sc2ccccc21 | -1.65 | – | 1.3 µM [falling, full curve, poor fit] |
| Cc1nc(=O)c(-c2ccccc2)c(C)n1-c1ccccc1C(=O)O | -23.5 | – | 2.06 µM [falling, full curve] |
| S=C(c1ccc(-c2ccc(Cl)c(Cl)c2)o1)N1CCOCC1 | – | – | 0.411 µM [falling, single point] |
| O=C(NCCc1ccccn1)c1cccc(S(=O)(=O)N2CCCCCC2)c1 | -19.5 | – | 10.3 µM [rising, partial curve] |
| O=C(Cc1ccccc1)Nc1cccc(S(=O)(=O)N2CCCCCC2)c1 | -8.17 | – | 6.51 µM [rising, single point] |
| CC(C)(CO)NCC(O)Cn1cc(C=O)c2ccccc21 (stereo unspecified) | 25.5 | – | 13 µM [rising, single point] |
| COc1cc(/C=C2\SC(=Nc3ccc(N4CCOCC4)cc3)N(C)C2=O)ccc1OC(C)C(=O)O (stereo unspecified) | 2.65 | – | – |
| CCOC(=O)N1CCN(c2ncnc3c2[nH]c2ccc(F)cc23)CC1 | -30.9 | 4.61 µM [falling, full curve, poor fit] | 13 µM [falling, partial curve] |
| CCC(C)NC(=O)CN1C(=O)NC2(CCOc3ccccc32)C1=O (stereo unspecified) | -8.11 | – | 6.51 µM [falling, single point] |
| CCCCOc1ccc(C(=O)NCC(=O)NCC(c2cccs2)N2CCOCC2)cc1 (stereo unspecified) | 6.27 | – | 29.1 µM [rising, single point] |
| CCOc1ccc2ccccc2c1CNCCN1CCOCC1 | 9.08 | – | 4.11 µM [falling, single point] |
| CCCCN(CC(=O)NC1CCCC1)C(=O)C(=O)Nc1ccc2c(c1)OCCO2 | 9.46 | – | 29.1 µM [falling, single point] |
| O=C(c1ccncc1)N1CCN(C2CCC(c3ccccc3)CC2)CC1 (stereo unspecified) | -11.2 | – | 6.51 µM [falling, single point] |
| Cc1ccc(S(=O)(=O)N2CCOCC2)cc1C(=O)OCC(=O)c1ccc[nH]1 | 16.7 | – | 0.517 µM [rising, full curve, poor fit] |
| Cc1ccc(N(CC(=O)NCc2ccc(F)cc2)S(=O)(=O)c2cccs2)cc1 | 79.7 | 4.61 µM [rising, partial curve] | 0.58 µM [rising, single point] |
| CC1CCCCN1CCNC(=O)C1CCCN(c2ncnc3c2nc2n3CCCCC2)C1 (stereo unspecified) | – | – | 6.51 µM [rising, single point] |
| NC(=O)CC(NC(=O)c1ccc(Br)cc1)c1ccc(N2CCN(c3ccccc3)CC2)c([N+](=O)[O-])c1 (stereo unspecified) | -6.15 | – | 29.1 µM [falling, single point] |

| SMILES | cell number change [%] | AC50 [1] | AC50 [2] |
| --- | --- | --- | --- |
| Cc1cc(C)c(OCC(=O)N(Cc2ccccc2)C2CCS(=O)(=O)C2)c(C)c1 (stereo unspecified) | -34.9 | 29.1 µM [falling, single point] | – |
| Cc1ccccc1NCC(=O)N/N=C\c1ccc2c(c1)OCO2 | 83.5 | 8.2 µM [rising, partial curve] | – |
| O=C(CSCc1ccc(Cl)cc1)Nc1nccs1 | 153 | 29.1 µM [rising, single point] | 0.651 µM [rising, single point] |
| O=C(NCCCN1CCN(CCCNC(=O)c2ccc3c(c2)OCO3)CC1)c1ccc2c(c1)OCO2 | – | 6.51 µM [falling, single point] | 6.51 µM [falling, single point] |
| COc1ccc(OC)c(NC(=O)COc2ccc(S(=O)(=O)NC(C)C)cc2)c1 | 4.1 | – | 0.58 µM [rising, single point] |
| O=[N+]([O-])c1ccccc1/C=C/C=N/n1c(-c2ccccc2F)n[nH]c1=S | 4.33 | – | – |
| COc1ccc2[nH]c3c(c2c1)CCN1C(=O)N([C@@H](C)C(=O)NC2CCCCC2C)C(=O)[C@]31C (stereo partly specified) | -11.3 | – | 2.06 µM [falling, full curve, poor fit] |
| O=C(/C=N/O)NCC1CCNCC1 | 4.3 | – | 0.517 µM [falling, full curve] |
| Cc1ccc(CCNC(=O)CN2CCN(Cc3ccccc3F)C2=O)cc1 | 36.3 | 0.0517 µM [rising, full curve, poor fit] | – |
| Cc1ccc(S(=O)(=O)N2CCC3(CC2)OCCO3)s1 | 13.5 | – | 3.66 µM [falling, single point] |
| O=C(COc1ccc(Cl)cc1Br)Nc1cccc(S(=O)(=O)N2CCCC2)c1 | 34.8 | 20.6 µM [rising, partial curve] | – |
| COc1ccccc1N1CCN(C2CCC(C)CC2)CC1 (stereo unspecified) | -5.25 | – | – |
| CC(C)NC(=O)c1ccc(CSCc2ccccc2Cl)o1 | -27.7 | 0.103 µM [falling, full curve, poor fit] | 5.8 µM [falling, full curve, poor fit] |
| CC(Nc1cc(N2CCN(S(=O)(=O)N(C)C)CC2)ccc1[N+](=O)[O-])c1ccccc1 (stereo unspecified) | -18.2 | 0.461 µM [falling, single point] | 0.517 µM [falling, full curve] |
| CCCN(C(=O)c1ccc(N(C)S(=O)(=O)c2ccc(C)cc2)cc1)C1CCS(=O)(=O)C1 (stereo unspecified) | 58.9 | 8.2 µM [rising, partial curve] | – |
| CC(C)C[C@H](NC(=O)Nc1cccc(Br)c1)C(=O)O | – | – | 1.03 µM [falling, full curve] |
| COC(=O)c1ccccc1NC1=C/C(=N\S(=O)(=O)c2cccs2)c2ccccc2C1=O | -91.4 | 25.9 µM [falling, partial curve] | 29.1 µM [falling, single point] |
| Cc1ccc(Nc2nc(N)c(C#N)c(CC#N)c2C#N)cc1 | 53.2 | 6.51 µM [falling, single point] | 6.51 µM [falling, single point] |
| Cc1ccc(C(=O)N2CC(=O)Nc3ccc(F)cc3C2c2ccc(F)cc2)cc1[N+](=O)[O-] (stereo unspecified) | 11.7 | – | 1.46 µM [rising, partial curve, poor fit] |

No new results follow: 5 of the compounds above.

| SMILES | cell number change [%] | AC50 [1] | AC50 [2] |
| --- | --- | --- | --- |
| O=C(NCCCN1CCN(CCCNC(=O)c2ccc3c(c2)OCO3)CC1)c1ccc2c(c1)OCO2 | – | 6.51 µM [falling, single point] | 6.51 µM [falling, single point] |
| COc1ccc(OC)c(NC(=O)COc2ccc(S(=O)(=O)NC(C)C)cc2)c1 | 4.1 | – | 0.58 µM [rising, single point] |
| O=[N+]([O-])c1ccccc1/C=C/C=N/n1c(-c2ccccc2F)n[nH]c1=S | 4.33 | – | – |
| COc1ccc2[nH]c3c(c2c1)CCN1C(=O)N([C@@H](C)C(=O)NC2CCCCC2C)C(=O)[C@]31C (stereo partly specified) | -11.3 | – | 2.06 µM [falling, full curve, poor fit] |
| O=C(/C=N/O)NCC1CCNCC1 | 4.3 | – | 0.517 µM [falling, full curve] |
